No constants are given. Whether binding was seen depends on the method and setting. Binding seen in cells or lysates may run through a third protein. Some entries that bind do so weakly or less than the wild type.
What was measured:
Flag-N-PTEN = Flag-N-PTEN (UniProt P60484); test: co-IP; exogenous (transfected) INPP5B and exogenous PTEN in HEK293 cells; which was precipitated is not told
[1] = target: endogenous PTEN (A549 cells) (human (endogenous in A549)) (UniProt P60484); test: co-IP; endogenous PTEN and endogenous INPP5B in A549 cells; a PTEN antibody (CST 9188s, 1:50) is listed for IP

The chains behind the UniProt entries cited, without tags or fusion partners.
UniProt P60484: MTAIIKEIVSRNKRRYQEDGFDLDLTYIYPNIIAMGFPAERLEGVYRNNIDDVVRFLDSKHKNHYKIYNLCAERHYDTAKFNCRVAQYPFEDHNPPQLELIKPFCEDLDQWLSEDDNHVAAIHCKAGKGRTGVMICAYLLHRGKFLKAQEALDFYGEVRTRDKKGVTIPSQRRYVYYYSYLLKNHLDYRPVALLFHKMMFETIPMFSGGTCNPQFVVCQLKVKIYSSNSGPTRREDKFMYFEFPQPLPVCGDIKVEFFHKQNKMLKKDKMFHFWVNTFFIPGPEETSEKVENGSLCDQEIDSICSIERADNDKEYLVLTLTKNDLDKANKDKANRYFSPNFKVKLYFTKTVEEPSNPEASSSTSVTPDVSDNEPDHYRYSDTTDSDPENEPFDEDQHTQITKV
UniProt P32019: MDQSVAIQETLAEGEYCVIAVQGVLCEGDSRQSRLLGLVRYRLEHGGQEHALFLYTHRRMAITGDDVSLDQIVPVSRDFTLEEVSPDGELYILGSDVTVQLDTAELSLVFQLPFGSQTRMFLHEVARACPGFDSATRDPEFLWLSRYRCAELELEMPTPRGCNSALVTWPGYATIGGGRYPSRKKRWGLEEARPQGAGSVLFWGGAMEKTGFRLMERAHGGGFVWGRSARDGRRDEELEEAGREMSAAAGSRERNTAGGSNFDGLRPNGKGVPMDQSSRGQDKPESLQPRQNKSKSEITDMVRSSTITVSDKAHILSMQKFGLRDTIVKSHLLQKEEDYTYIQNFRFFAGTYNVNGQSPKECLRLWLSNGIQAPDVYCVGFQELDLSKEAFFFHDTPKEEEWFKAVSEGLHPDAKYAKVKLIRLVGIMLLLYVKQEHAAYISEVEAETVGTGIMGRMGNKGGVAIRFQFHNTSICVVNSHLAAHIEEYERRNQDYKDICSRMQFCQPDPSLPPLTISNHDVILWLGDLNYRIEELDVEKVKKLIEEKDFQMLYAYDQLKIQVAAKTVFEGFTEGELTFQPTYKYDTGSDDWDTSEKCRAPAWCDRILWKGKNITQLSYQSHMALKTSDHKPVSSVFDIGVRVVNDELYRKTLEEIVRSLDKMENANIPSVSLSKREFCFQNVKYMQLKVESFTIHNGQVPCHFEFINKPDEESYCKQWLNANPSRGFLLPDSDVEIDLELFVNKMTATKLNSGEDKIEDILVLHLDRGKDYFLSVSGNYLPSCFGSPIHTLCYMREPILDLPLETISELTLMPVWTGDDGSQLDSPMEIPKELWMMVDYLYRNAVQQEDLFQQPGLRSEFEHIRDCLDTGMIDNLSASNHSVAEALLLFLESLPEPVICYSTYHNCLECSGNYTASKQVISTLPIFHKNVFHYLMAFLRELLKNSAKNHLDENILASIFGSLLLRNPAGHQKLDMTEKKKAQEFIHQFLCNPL

## HA-tagged full-length human INPP5B (Inositol Polyphosphate-5-Phosphatase B) (from UniProt P32019 1-993) (enzyme)
Flag-N-PTEN
  binding: binds

## endogenous INPP5B (A549 cells) (from UniProt P32019 1-993) (enzyme)
[1]
  binding: binds
